In patent US11639325B2, “Compositions of polyhydroxylated benzophenones and methods of treatment of neurodegenerative disorders” (Massachusetts Institute of Technology, priority 2015, dated 2023):

System: 5XFAD mice
Test: RNA-Seq of hippocampi of treated 5XFAD mice and gene enrichment analysis
Assay type: in vivo, mouse
Conditions: 50 mg/kg i.p. for 2 weeks

In the case of O=C(c1cc(O)c(O)c(O)c1)c1ccc(O)c(O)c1O [exifone], the “enrichment of upregulated genes (ToppGene)” value is reported as “enriched for those involved in cytokine responses”, the differentially expressed genes (p-value <0.05) is reported as 1,383 genes and the downregulated genes (p-value <0.05) is reported as 599 genes. It also gave an upregulated genes (p-value <0.05) of 784 genes.
